From publication PMC12805896

Legend:
[1] = target: T1, C-terminally tagged NF-κB/Relish (UAS-Relish-V5), transgenic flies (Drosophila melanogaster) (UniProt Q94527); experiment: co-IP; anti-V5 immunoprecipitation from whole-fly lysates (TubGal4ts > UAS-HDAC6-HA; UAS-Relish-V5); flies fed ad libitum or fasted; washes with IP lysis buffer and IP lysis buffer with 500 mM NaCl; immunoblot
T1 sequence: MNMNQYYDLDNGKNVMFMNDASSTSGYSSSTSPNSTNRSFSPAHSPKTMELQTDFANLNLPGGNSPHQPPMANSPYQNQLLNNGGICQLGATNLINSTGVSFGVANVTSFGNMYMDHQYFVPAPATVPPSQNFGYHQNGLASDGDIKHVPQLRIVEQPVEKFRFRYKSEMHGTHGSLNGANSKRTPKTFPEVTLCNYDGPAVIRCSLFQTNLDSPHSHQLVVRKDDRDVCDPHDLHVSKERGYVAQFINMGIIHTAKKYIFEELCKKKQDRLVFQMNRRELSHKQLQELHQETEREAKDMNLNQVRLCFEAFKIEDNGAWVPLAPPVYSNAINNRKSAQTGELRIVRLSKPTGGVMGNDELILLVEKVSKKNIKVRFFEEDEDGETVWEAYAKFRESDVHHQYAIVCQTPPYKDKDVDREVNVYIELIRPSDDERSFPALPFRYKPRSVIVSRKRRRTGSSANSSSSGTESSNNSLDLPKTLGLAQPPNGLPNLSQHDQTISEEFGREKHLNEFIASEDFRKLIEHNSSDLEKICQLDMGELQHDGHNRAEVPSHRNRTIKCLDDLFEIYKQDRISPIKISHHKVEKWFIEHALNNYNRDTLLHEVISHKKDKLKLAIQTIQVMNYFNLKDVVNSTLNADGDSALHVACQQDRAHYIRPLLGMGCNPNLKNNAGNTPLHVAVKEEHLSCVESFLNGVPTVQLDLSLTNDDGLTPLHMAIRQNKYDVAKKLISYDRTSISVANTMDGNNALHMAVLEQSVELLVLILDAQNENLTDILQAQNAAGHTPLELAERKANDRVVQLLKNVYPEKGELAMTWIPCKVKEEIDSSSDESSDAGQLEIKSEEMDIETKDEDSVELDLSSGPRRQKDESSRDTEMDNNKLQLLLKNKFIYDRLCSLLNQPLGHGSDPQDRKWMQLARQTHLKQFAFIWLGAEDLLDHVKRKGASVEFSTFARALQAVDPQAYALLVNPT

[2] = target: T2, V5-tagged Relish (pAC5.1-Relish-V5) (Drosophila melanogaster) (UniProt Q94527); experiment: condition: only normal culture conditions (no serum starvation); co-IP; anti-V5 immunoprecipitation (Protein A/G magnetic beads) from cleared lysates of S2R+ cells transiently expressing HDAC6-HA and Relish-V5; cells under normal culture conditions; washes with IP lysis buffer and IP lysis buffer with 500 mM NaCl; immunoblot
T2 sequence: T1 sequence

[3] = target: T2, V5-tagged Relish (pAC5.1-Relish-V5) (Drosophila melanogaster); experiment: co-IP; anti-V5 immunoprecipitation (Protein A/G magnetic beads) from cleared lysates of S2R+ cells transiently expressing HDAC6-HA and Relish-V5; cells under serum starvation; washes with IP lysis buffer and IP lysis buffer with 500 mM NaCl; immunoblot

binding [1]	binding [2]	binding [3]	Substance
binds	–	–	C-terminally tagged HDAC6 (UAS-HDAC6-HA), transgenic flies (Drosophila melanogaster) (enzyme)
–	no binding	binds	HA-tagged HDAC6 (pAC5.1-HDAC6-HA) (Drosophila melanogaster) (enzyme)

Results are given in words; binding and its absence hold for the method and conditions named. Binding seen in cells or lysates may run through a third protein. For part of these data: Binding can be weak; no strength is given. Sequences can lack the tags named with a protein.
